{"sequences": {"note": "Amino acid sequences for entries named in this document (tags omitted). A change or cut given only in a name is not applied to a line headed by its entry.", "UniProt Q9H165": "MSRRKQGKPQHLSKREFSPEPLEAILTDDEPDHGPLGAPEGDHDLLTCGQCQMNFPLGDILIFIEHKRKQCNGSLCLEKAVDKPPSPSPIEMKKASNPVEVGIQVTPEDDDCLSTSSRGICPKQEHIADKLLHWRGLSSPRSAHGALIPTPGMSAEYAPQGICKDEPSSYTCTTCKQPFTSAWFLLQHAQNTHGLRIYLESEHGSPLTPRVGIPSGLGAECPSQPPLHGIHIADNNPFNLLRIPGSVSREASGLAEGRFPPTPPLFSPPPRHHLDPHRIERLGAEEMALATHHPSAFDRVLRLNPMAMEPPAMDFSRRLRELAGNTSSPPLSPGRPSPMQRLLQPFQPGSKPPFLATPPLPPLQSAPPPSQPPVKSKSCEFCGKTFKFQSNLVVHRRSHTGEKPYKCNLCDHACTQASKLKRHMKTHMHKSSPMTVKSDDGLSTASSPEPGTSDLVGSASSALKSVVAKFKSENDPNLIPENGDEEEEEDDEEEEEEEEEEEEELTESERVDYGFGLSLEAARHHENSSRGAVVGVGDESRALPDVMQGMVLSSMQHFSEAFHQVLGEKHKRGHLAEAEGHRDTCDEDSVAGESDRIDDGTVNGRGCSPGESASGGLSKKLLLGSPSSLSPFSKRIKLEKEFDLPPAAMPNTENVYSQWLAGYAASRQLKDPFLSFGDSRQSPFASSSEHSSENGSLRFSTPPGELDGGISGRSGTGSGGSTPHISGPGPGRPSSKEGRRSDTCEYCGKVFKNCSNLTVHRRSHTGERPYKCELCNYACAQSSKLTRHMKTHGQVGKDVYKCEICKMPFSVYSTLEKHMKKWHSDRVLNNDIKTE"}, "source": "paper PMC1526750", "key": {"HA-BCL11A-XL (human)": {"molecular_target": "HA-BCL11A-XL (human) (UniProt Q9H165)", "test": "EMSA", "settings": "20 mM HEPES pH 7.9, 40 mM KCl, 6 mM MgCl2, 1 mM DTT, 0.1% NP40, 3 mg/ml acetylated BSA, 10% glycerol, 2% Ficoll, PMSF, aprotinin, protein in a lysate after overexpression, residues 1-835, protein details: N-terminal HA"}, "FLAG-BCL6": {"molecular_target": "FLAG-BCL6 (UniProt P41182)", "test": "EMSA", "settings": "BCL6-transfected HEK293 extract; 20 mM HEPES pH 7.9, 40 mM KCl, 6 mM MgCl2, 1 mM DTT, 0.1% NP40, 3 mg/ml acetylated BSA, 10% glycerol, 2% Ficoll, PMSF, aprotinin; protein in a lysate after overexpression; protein details: FLAG"}}, "note": "The exact form of at least one protein or probe is not confirmed. Where cells or extracts were used, other partners may take part. For part of these data: No signal at the amounts used counts as a negative."}
{"sequence": "GCACTCCCACGCCTCACTCCCACGCCTCACTCCCACGCCTCCCACCCCCGCCTCCCACCCCCGCCT (double strand) [4x BCL11A-XL CASTing consensus probe]", "values": [{"measurement": "binding result", "setting": "HA-BCL11A-XL (human); HEK293 or DT40 extract, dose dependent, anti-HA supershift/ablation", "value": "binds"}, {"measurement": "binding result", "setting": "HA-BCL11A-XL (human); with increasing FLAG-BCL6 DT40 nuclear extract: XL binding enhanced, no heteromeric complex on DNA (anti-FLAG no effect)", "value": "binds"}, {"measurement": "binding result", "setting": "FLAG-BCL6", "value": "no binding"}]}
